## Assay results

The results are deposited in PubChem (AID1159506; NCATS, 2015).

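Luminescence from an EWS-FLI1 target-promoter (NR0B1) reporter, set against a CMV-promoter reporter, two days after silencing single genes in TC32 Ewing sarcoma cells. Each siRNA was applied at 20 nM. A z-score of the log NR0B1-over-CMV signal, less the median of siRNAs with the same seed; more negative means a stronger specific loss of the NR0B1 reporter.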

The strongest results of the screen are mostly left out here. Sequences are the guide (antisense) strand, without overhang.

| siRNA | gene | seed-corrected z-score |
|---|---|---|
| `UACUCGAAUUUUCUUAGGC` | SYNJ1 | 0.4428 |
| `UAUUCAUGGACAUCGACUG` | LRRN1 | 1.483 |
| `UGCUGAAUCACAAUAUCCU` | POLR2G | -1.112 |
| `AAAUAGGUGACAAAUUUCU` | RGL4 | 0.3479 |
| `UUUCUCUUCUCAAUAACCC` | CEMP1 | -0.4574 |
| `UACUGUACCAAUUUGCUGA` | RPL26P11 | 0.08976 |
| `UUUCGAAUUCAGGGUAUUG` | DSG2 | 1.098 |
| `UCAGGUGCUGGUCCGAUGU` | CA11 | -1.745 |
| `UUCCAUGUCAUAAUCCUCU` | SERPINB9 | 0.01773 |
| `ACACUGUUAACAGAUUAUC` | DBF4P1 | 0.9461 |
| `UCCUGUACCACCAUGGAGA` | PRDX5 | 0.6166 |
| `UCUCCGAUAAGAUUUCUUC` | A1CF | -0.01362 |
| `UCUAUAUCCUCCAUACUGC` | SS18 | -0.5208 |
| `UUCCUUCCUGCAUAAGUUU` | NDUFB4P12 | -0.8302 |
| `UGACCUGUAAGCAGAUUCC` | IPO7 | -0.03257 |
| `AAACAUCUGAUCAACAUCC` | RAB3IP | 0.1357 |
| `AUAGUCACCAGUAAUCUGC` | AMPD1 | 0.3584 |
| `UUCCGGUUCACGAUUAGCC` | DOCK8 | 0.4418 |
| `AUUCGUGACACUCAUUUGG` | ZNF490 | 0.2552 |
| `UUGUAGGAAACCUCGAUCC` | ZER1 | -1.383 |
| `AAUCUUAUUCUUGAUCUUC` | CREB3L2 | 0.141 |
| `UAAACGUAGAUGGAACUUC` | PGBD3 | -0.1357 |
| `UUUGGUGAGAGUAGAUUCC` | HYOU1 | -0.6247 |
| `UUCCGUUUCAGGAGCUCGG` | CYSRT1 | -0.07282 |
| `UAGGGAAUUACUGGGAAUG` | TP53INP2 | -1.602 |
| `UCCGUUUGCACCUUCUUCC` | EBNA1BP2 | -0.9788 |
| `UAAUCUUCCACCACAAACC` | PLCD3 | -0.4239 |
| `UAUCAUUGCAACUGGAUCC` | ATG16L1 | 0.1451 |
| `UCUUUCCCGAUGGCAAGGU` | PTX4 | -0.4184 |
| `AAUCGAUUCGCUCUAAUUG` | CFAP47 | 0.3419 |
| `UGAUGUAAUAAGGAAGCUG` | OR1J2 | 0.2873 |
| `UAGCCGUAAUGGGUCCUGC` | DPEP1 | -0.5894 |
| `UGAUUAUCCAGCAAGGUCU` | SLC45A4 | 1.348 |
| `UCUUAGUCUCGAUCAUUGC` | UBD | -0.3215 |
| `UGAUGUUUAAUGUUCCAUC` | ALDH6A1 | 1.133 |
| `UCCUCAUCCAGGUUACUCC` | C3 | 0.1985 |
| `AUCGUUUAGACUCUUGAGC` | ZC3H7A | -1.072 |
| `UGAUGUUACAGAAUAGCUG` | CFAP99 | -0.7792 |
| `AAUGGAAUUAUGUCGAGAC` | RNF38 | -1.149 |
| `AUUUGCAUAAAAGUGCACG` | TAB1 | 0.6121 |
| `UGUAUAACAAACUCGGAAC` | ZNF19 | 0.35 |
| `UAAUCGCCUUCGUAGAUCG` | LRRC43 | -0.487 |
| `UAACUAACUUCUGACCAUG` | USP6NL | -0.2942 |
| `UUUAUCAUCGGCUUGAAGG` | CFAP74 | 0.09314 |
| `UACCUGUCAAUGCUGAUCA` | HTR7 | -1.113 |
| `UUUCCUAUAAUUGUCAUAU` | LOC644173 | 0.692 |
| `UCUUGCACAAGAAACUCCC` | ACKR2 | -0.6585 |
| `UCCAGUAUAGGCAUAAUCG` | KBTBD3 | 0.07812 |
| `UCUUCGUCUGGGUGAAGGC` | CLEC3B | 0.3059 |
| `AAAUGCAUCCUACAGAAGG` | LY6G5B | 0.6073 |
| `AUCAUGAAAAGGUACACUC` | PTDSS1 | 0.7459 |
| `UUUGUUUCCAGGUACUGAG` | PNP | -1.47 |
| `UUCACGAUCCUGGACAGGC` | CTRB1 | -0.009249 |
| `UAUUCGACCUGUACUGAAC` | PRDM6 | 0.323 |
| `UGACGGUGUGGAGAAGAGC` | CRCP | -0.4202 |
| `UUUUGUGGUGGCGCAGUCU` | PRRG3 | -0.4463 |
| `UUUGCGUCCACACGGAUCU` | LAMTOR1 | 0.2018 |
| `UCCACAUAUAGUAGAAUGC` | MIER3 | 0.9226 |
| `UCAUCUAACACUUUUUCAG` | HTATSF1 | -0.1868 |
| `AACAGACUCGCUGACAUCC` | KBTBD4 | -0.5428 |
| `UAUACCGUUCUGUACAUCC` | TENM3 | 0.2874 |
| `AGAUUCUCCACGUAGUUGG` | TTC25 | 1.652 |
| `AAUCCACCAACUGAGUUGC` | RAB39A | 0.3415 |
| `AAGCGAACGACUUUCAGGG` | TBC1D7 | 0.1092 |
| `UCACUAAUUUCCUAGUUUC` | SIM2 | 0.1132 |
| `AAGUUUACUAGUGAGGGUC` | GBP3 | -0.04186 |
| `UCACCAUUGAGGUAGAGGG` | LZTS3 | 0.1701 |
| `UCAUAAAUAUCAUAGUUGC` | UGT2B17 | -0.3307 |
| `UCAGGGUUGAUGUAGAGCA` | FSHR | 0.6599 |
| `UAAGUGAAAAGUUCCUAUG` | MARCKS | 0.654 |
| `AUUACGUUGAAAACUACUC` | ACSL3 | 0.268 |
| `GCUGGACUAAUGGUUCACC` | AK4P3 | -0.4144 |

The first 7 entries again:

| siRNA | gene | seed-corrected z-score |
|---|---|---|
| `UACUCGAAUUUUCUUAGGC` | SYNJ1 | 0.4428 |
| `UAUUCAUGGACAUCGACUG` | LRRN1 | 1.483 |
| `UGCUGAAUCACAAUAUCCU` | POLR2G | -1.112 |
| `AAAUAGGUGACAAAUUUCU` | RGL4 | 0.3479 |
| `UUUCUCUUCUCAAUAACCC` | CEMP1 | -0.4574 |
| `UACUGUACCAAUUUGCUGA` | RPL26P11 | 0.08976 |
| `UUUCGAAUUCAGGGUAUUG` | DSG2 | 1.098 |